PubChem BioAssay AID1053208 | Peter MacCallum Cancer Centre | 2014
Shown is an unselected part of about 17,000 deposited reagents. 788 of them (4.7%) count as active. 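Calls rest on z-score classes alone; an extra cut-off of viability at most 70% of control was not applied to them.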

Purpose: 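Genes whose silencing cuts survival of bone tumour cells only with doxorubicin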 (primary screen)
Cell system: mouse osteosarcoma cells, early-passage culture from an engineered mouse model of fibroblastic bone tumour
Knock-down reagent: siRNA pool against mouse genes, 40 nM
Timing: about 120 h (48 h before drug, then 72 h with drug)
Conditions: doxorubicin 100 nM for 72 h, roughly 30-40% inhibitory dose
Read-out: 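Luminescent ATP signal taken as viability with or without 100 nM doxorubicin for 72 h; mean of two wells set against non-targeting siRNA and turned into robust z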
Scale: viability z-score with doxorubicin and doxorubicin viability vs non-targeting: higher = more viable cells under doxorubicin; viability z-score without drug: higher = more viable cells with knock-down alone; z-score of drug to no-drug ratio: higher = less drug sensitisation by knock-down
Rule for the call: 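Called active if knock-down leaves viability unchanged without drug (z within -2 to 2) but lowers it with doxorubicin (z at or under -2)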

| gene | combined z-score class | viability z-score with doxorubicin | viability z-score without drug | z-score of drug to no-drug ratio | doxorubicin viability vs non-targeting | Outcome |
| --- | --- | --- | --- | --- | --- | --- |
| Nme5 (GeneID 75533) | no change with or without drug | -0.34 | 0.67 | -0.67 | 0.91 | inactive |
| Lce1h (GeneID 67718) | high cell count with doxorubicin only | 3.48 | 1.18 | 2.81 | 1.25 | inactive |
| Tex19.1 (GeneID 73679) | no change with or without drug | 0 | 0.84 | -0.45 | 0.94 | inactive |
| Loxl4 (GeneID 67573) | no change with or without drug | 0.79 | 0.84 | 0.34 | 1.01 | inactive |
| Cyp2b10 (GeneID 13088) | no change with or without drug | 0.22 | 1.01 | -0.34 | 0.96 | inactive |
| Pabir2 (GeneID 78755) | no change with or without drug | 0.67 | -0.17 | 0.9 | 1 | inactive |
| Tmprss5 (GeneID 80893) | no change with or without drug | 0.56 | 0.17 | 0.56 | 0.99 | inactive |
| Or6p1 (GeneID 258756) | high cell count without drug only | 0.9 | 2.02 | -0.34 | 1.02 | inactive |
| Pdgfa (GeneID 18590) | no change with or without drug | -1.46 | -1.18 | -0.67 | 0.81 | inactive |
| Id2 (GeneID 15902) | no change with or without drug | -0.67 | -0.51 | -0.22 | 0.88 | inactive |
| Cyp2ab1 (GeneID 224044) | no change with or without drug | 0.9 | 1.85 | -0.22 | 1.02 | inactive |
| Scn3b (GeneID 235281) | high cell count with doxorubicin only | 2.25 | 1.52 | 1.35 | 1.14 | inactive |
| H2-DMb1 (GeneID 14999) | no change with or without drug | -1.57 | -1.18 | -0.79 | 0.8 | inactive |
| Zfp369 (GeneID 170936) | no change with or without drug | -1.35 | 0.51 | -1.57 | 0.82 | inactive |
| Atad3a (GeneID 108888) | no change with or without drug | -0.79 | -0.51 | -0.34 | 0.87 | inactive |
| Ccdc137 (GeneID 67291) | high cell count with doxorubicin only | 2.02 | 0.84 | 1.57 | 1.12 | inactive |
| Tdrd1 (GeneID 83561) | low cell count with and without drug | -2.92 | -3.88 | -0.45 | 0.68 | inactive |
| Commd7 (GeneID 99311) | no change with or without drug | 0.67 | 1.18 | 0 | 1 | inactive |
| Rabggta (GeneID 56187) | no change with or without drug | 0.67 | -0.17 | 0.9 | 1 | inactive |
| Mipol1 (GeneID 73490) | no change with or without drug | -0.22 | 0.17 | -0.22 | 0.92 | inactive |
| Cyp51 (GeneID 13121) | no change with or without drug | 0.45 | 1.52 | -0.45 | 0.98 | inactive |
| Tex101 (GeneID 56746) | no change with or without drug | -1.8 | 0.51 | -2.02 | 0.78 | inactive |
| Lrrc18 (GeneID 67580) | high cell count without drug only | 0.9 | 3.54 | -1.12 | 1.02 | inactive |
| Cyp2c70 (GeneID 226105) | no change with or without drug | 0 | 0.84 | -0.45 | 0.94 | inactive |
| Havcr1 (GeneID 171283) | no change with or without drug | -0.45 | -0.17 | -0.22 | 0.9 | inactive |
| Clk4 (GeneID 12750) | no change with or without drug | -0.22 | 0.17 | -0.22 | 0.92 | inactive |
| Or5d46 (GeneID 258767) | no change with or without drug | 0.9 | -1.18 | 2.02 | 1.02 | inactive |
| Cntnap1 (GeneID 53321) | no change with or without drug | -0.9 | -0.17 | -0.79 | 0.86 | inactive |
| Enpp1 (GeneID 18605) | no change with or without drug | 0.9 | 1.01 | 0.34 | 1.02 | inactive |
| Mfap3l (GeneID 71306) | no change with or without drug | 0.56 | -0.51 | 1.12 | 0.99 | inactive |
| Mllt1 (GeneID 64144) | no change with or without drug | 0.11 | 0.17 | 0.11 | 0.95 | inactive |
| Vmn1r192 (GeneID 252907) | no change with or without drug | 0.56 | 0.34 | 0.45 | 0.99 | inactive |
| Commd3 (GeneID 12238) | no change with or without drug | -0.45 | 1.85 | -1.46 | 0.9 | inactive |
| Polr1b (GeneID 20017) | low cell count without drug only | -1.8 | -3.2 | 0.56 | 0.78 | inactive |
| Emx1 (GeneID 13796) | no change with or without drug | 0.22 | 0.84 | -0.22 | 0.96 | inactive |
| Mdh1b (GeneID 76668) | high cell count without drug only | 0.67 | 2.19 | -0.56 | 1 | inactive |
| Or6z3 (GeneID 258917) | no change with or without drug | -0.9 | 0.67 | -1.24 | 0.86 | inactive |
| Fst (GeneID 14313) | no change with or without drug | 0.34 | -0.51 | 0.79 | 0.97 | inactive |
| Cyren (GeneID 78412) | no change with or without drug | 0 | 0.51 | -0.22 | 0.94 | inactive |
| 9330140K16RIK | low cell count with and without drug | -4.05 | -3.71 | -2.14 | 0.58 | inactive |
| Padi6 (GeneID 242726) | no change with or without drug | -0.67 | 1.18 | -1.35 | 0.88 | inactive |
| Gfm2 (GeneID 320806) | high cell count without drug only | 1.24 | 2.36 | -0.22 | 1.05 | inactive |
| Krt71 (GeneID 56735) | low cell count with doxorubicin only | -2.59 | -1.69 | -1.57 | 0.71 | active |
| Nphp1 (GeneID 53885) | no change with or without drug | 0.45 | -0.17 | 0.67 | 0.98 | inactive |
| Unk (GeneID 217331) | high cell count without drug only | 1.24 | 2.53 | -0.34 | 1.05 | inactive |
| Ifi30 (GeneID 65972) | no change with or without drug | -0.45 | -1.01 | 0.34 | 0.9 | inactive |
| Cysrt1 (GeneID 67859) | no change with or without drug | 0.56 | 0.34 | 0.45 | 0.99 | inactive |
| Agpat3 (GeneID 28169) | no change with or without drug | -1.12 | -1.85 | 0.22 | 0.84 | inactive |
| Tas2r139 (GeneID 353148) | no change with or without drug | -0.9 | 0.67 | -1.24 | 0.86 | inactive |
| Igf2bp2 (GeneID 319765) | no change with or without drug | 0.67 | 0.67 | 0.34 | 1 | inactive |
| Fv4 (GeneID 14352) | high cell count without drug only | 0.9 | 2.02 | -0.34 | 1.02 | inactive |
| Ccdc33 (GeneID 382077) | high cell count without drug only | 0.56 | 2.36 | -0.79 | 0.99 | inactive |
| Map1a (GeneID 17754) | no change with or without drug | 0.22 | -0.17 | 0.45 | 0.96 | inactive |
| Cdh7 (GeneID 241201) | no change with or without drug | -0.45 | -0.67 | 0.11 | 0.9 | inactive |
| Clcn4 (GeneID 12727) | low cell count with doxorubicin only | -2.7 | -1.85 | -1.69 | 0.7 | active |
| Purb (GeneID 19291) | no change with or without drug | -0.22 | 0.17 | -0.22 | 0.92 | inactive |
| Ncmap (GeneID 230822) | no change with or without drug | 0 | -0.17 | 0.22 | 0.94 | inactive |
| Defb6 (GeneID 116746) | no change with or without drug | 0.79 | 1.52 | -0.11 | 1.01 | inactive |
| Barx2 (GeneID 12023) | no change with or without drug | -0.67 | 0.67 | -1.01 | 0.88 | inactive |
| 2210415K24RIK | no change with or without drug | -0.22 | 0.17 | -0.22 | 0.92 | inactive |
| Lhfpl1 (GeneID 237091) | low cell count with and without drug | -2.7 | -2.87 | -0.9 | 0.7 | inactive |
| Uqcrh (GeneID 66576) | no change with or without drug | 0.22 | -1.85 | 1.8 | 0.96 | inactive |
| Or11g24 (GeneID 258663) | no change with or without drug | 0.45 | -0.17 | 0.67 | 0.98 | inactive |

Reformatted: 7 of the entries above.
gene,combined z-score class,viability z-score with doxorubicin,viability z-score without drug,z-score of drug to no-drug ratio,doxorubicin viability vs non-targeting,Outcome
Agpat3 (GeneID 28169),no change with or without drug,-1.12,-1.85,0.22,0.84,inactive
Tas2r139 (GeneID 353148),no change with or without drug,-0.9,0.67,-1.24,0.86,inactive
Igf2bp2 (GeneID 319765),no change with or without drug,0.67,0.67,0.34,1,inactive
Fv4 (GeneID 14352),high cell count without drug only,0.9,2.02,-0.34,1.02,inactive
Ccdc33 (GeneID 382077),high cell count without drug only,0.56,2.36,-0.79,0.99,inactive
Map1a (GeneID 17754),no change with or without drug,0.22,-0.17,0.45,0.96,inactive
Cdh7 (GeneID 241201),no change with or without drug,-0.45,-0.67,0.11,0.9,inactive
